# Results from the supplement of paper PMC10849652.
# Chains of the proteins cited; added tags and fusions are not shown. Lines headed by an entry give the natural chain unless they say otherwise; changes in a name come on top.
# UniProt P49643: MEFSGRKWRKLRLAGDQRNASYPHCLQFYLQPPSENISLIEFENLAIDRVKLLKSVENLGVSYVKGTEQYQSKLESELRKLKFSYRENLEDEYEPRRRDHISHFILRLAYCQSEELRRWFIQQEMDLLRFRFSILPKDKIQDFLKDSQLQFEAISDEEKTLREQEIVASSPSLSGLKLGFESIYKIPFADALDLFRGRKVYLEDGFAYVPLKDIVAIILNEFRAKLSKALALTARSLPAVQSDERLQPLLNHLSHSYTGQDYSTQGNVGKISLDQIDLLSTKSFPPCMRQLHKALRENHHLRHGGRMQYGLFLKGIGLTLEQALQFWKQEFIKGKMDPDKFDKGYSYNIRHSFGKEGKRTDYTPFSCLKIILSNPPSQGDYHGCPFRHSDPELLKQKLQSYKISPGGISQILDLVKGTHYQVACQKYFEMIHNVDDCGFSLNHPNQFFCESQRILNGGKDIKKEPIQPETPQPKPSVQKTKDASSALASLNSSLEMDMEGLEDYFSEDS
# UniProt Q15173: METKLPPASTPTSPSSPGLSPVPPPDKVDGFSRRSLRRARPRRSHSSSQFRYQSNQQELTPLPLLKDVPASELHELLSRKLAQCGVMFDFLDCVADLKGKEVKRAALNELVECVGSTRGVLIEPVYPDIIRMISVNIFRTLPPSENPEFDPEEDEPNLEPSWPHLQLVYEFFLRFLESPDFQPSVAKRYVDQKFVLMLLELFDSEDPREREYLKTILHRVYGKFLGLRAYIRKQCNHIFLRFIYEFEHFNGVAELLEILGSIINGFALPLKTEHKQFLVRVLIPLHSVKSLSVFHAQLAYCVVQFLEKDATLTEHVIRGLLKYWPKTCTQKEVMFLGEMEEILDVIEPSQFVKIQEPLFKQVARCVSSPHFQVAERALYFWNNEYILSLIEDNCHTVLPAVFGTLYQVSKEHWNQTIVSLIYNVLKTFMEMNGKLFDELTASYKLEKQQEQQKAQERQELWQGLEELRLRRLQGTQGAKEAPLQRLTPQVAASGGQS
# UniProt P14314: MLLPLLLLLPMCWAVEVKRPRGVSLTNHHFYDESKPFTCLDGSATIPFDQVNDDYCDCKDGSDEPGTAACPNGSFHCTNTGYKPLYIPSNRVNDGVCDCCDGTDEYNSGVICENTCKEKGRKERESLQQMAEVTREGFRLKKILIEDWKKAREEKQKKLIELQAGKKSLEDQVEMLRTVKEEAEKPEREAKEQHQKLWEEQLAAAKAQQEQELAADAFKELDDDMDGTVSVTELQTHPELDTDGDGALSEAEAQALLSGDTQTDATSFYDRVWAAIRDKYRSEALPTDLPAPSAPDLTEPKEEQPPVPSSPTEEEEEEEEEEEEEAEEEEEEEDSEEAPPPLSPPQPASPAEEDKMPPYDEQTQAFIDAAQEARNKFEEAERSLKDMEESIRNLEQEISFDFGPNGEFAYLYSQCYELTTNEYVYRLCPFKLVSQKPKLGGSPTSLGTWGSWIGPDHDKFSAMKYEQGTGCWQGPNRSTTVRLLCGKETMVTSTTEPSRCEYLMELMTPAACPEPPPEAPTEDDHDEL
# UniProt Q13362, whole entry, looked up: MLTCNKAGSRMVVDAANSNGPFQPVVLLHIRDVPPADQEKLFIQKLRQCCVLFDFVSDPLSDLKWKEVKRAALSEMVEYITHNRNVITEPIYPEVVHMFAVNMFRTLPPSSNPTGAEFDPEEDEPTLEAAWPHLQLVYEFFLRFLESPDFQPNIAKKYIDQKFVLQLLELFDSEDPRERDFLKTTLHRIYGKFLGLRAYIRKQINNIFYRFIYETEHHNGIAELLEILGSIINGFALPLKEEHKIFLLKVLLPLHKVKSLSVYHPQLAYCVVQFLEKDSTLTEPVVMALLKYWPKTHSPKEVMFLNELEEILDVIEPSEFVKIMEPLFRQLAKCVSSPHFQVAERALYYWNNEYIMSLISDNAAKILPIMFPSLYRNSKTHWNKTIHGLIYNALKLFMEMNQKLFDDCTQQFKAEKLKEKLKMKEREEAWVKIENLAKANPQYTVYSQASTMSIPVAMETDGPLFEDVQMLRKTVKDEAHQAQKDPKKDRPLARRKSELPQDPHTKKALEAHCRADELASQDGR
# UniProt O60256: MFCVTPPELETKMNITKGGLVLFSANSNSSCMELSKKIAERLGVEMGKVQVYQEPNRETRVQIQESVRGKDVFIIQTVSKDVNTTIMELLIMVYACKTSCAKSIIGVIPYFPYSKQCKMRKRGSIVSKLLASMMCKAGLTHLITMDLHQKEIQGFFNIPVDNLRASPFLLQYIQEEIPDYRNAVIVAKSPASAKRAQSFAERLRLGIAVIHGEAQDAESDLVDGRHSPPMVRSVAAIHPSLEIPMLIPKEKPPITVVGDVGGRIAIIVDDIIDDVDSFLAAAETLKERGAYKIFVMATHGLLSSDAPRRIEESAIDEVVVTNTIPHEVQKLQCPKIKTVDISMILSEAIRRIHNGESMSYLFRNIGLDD
# UniProt Q13131: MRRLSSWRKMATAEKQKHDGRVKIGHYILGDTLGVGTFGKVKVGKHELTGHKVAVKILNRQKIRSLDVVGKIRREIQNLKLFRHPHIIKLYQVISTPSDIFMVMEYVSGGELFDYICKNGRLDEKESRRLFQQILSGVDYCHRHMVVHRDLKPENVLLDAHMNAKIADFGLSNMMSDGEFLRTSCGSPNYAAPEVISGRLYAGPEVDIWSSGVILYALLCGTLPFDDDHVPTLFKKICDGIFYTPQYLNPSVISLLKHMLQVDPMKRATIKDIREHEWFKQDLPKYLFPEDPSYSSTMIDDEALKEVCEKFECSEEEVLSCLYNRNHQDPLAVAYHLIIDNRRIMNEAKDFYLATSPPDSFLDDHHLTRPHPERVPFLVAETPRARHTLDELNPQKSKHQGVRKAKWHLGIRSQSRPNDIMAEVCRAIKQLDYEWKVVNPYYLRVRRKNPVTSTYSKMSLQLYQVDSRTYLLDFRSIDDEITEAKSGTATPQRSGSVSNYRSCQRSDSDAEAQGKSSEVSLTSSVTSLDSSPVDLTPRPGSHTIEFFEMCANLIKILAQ
# UniProt Q5VTL8: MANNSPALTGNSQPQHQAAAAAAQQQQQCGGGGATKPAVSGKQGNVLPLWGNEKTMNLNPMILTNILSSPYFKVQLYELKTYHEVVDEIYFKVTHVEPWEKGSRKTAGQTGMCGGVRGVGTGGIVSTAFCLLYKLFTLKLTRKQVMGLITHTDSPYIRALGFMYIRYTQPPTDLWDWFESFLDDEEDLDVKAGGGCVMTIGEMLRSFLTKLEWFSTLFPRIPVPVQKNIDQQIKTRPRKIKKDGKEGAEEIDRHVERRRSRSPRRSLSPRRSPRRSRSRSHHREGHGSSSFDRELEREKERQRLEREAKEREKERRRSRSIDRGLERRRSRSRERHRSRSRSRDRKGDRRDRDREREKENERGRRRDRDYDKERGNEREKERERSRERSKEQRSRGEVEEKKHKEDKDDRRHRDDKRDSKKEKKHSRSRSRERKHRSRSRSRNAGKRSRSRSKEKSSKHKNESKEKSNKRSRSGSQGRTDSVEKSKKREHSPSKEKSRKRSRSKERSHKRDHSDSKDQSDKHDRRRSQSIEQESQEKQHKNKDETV
# UniProt P42785: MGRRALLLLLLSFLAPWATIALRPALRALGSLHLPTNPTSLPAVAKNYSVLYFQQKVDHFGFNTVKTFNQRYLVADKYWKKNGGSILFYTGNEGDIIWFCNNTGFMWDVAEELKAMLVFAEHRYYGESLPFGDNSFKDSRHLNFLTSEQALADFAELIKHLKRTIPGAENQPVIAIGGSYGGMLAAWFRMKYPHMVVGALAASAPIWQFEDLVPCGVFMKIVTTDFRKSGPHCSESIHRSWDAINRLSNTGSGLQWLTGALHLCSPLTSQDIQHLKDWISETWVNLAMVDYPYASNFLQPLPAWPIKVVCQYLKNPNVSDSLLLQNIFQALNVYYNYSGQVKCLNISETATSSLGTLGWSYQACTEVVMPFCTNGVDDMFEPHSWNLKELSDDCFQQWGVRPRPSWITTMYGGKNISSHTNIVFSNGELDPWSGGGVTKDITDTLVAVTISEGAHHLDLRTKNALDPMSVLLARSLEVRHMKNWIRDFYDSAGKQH
# Some of the results follow.
# Columns and labels:
# Assay in all cases: log2 fold change, soluble protein after heating vs DMSO (PISA); higher = thermal stabilisation; K562 cells, 10 uM, 30 min; active = over 0.2 and 3.5 SD of the protein, either way, in both replicates (recomputed)
# [1] = compound: CC[C@@H]1C(=O)N(C)c2cnc(Nc3ccc(C(=O)NC4CCN(C)CC4)cc3OC)nc2N1C1CCCC1
# Procedure, shortened: (§1)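 For each measurement, 10 μM compound was applied for 30 min to K562 cells at 2×10^6 cells/mL. Aliquots were heated for 3 min across 48°C-58°C, pooled, and extracted in PBS with 0.5% NP-40 at 4°C; the supernatant after 21,000xg for 90 min was soluble protein. This was quantified by TMTpro 16plex LC-MS/MS with channel sums equalised, and thermal stability was reported relative to control samples from duplicates, on a log2 fold-change scale.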
# [2] = compound: CC[C@@H]1C(=O)N(C)c2cnc(Nc3ccc(C(=O)N[C@H]4CC[C@H](N5CCN(CC6CC6)CC5)CC4)cc3OC)nc2N1C(C)C [volasertib]
# Procedure, shortened: as §1
# [3] = compound: CC[C@H](C)N1C=C(C2=C(C=C(C=C21)C3=CN=C(C=C3)N4CCNCC4)C(=O)NCC5=C(C=C(NC5=O)C)C)C
# Procedure, shortened: as §1
# [4] = compound: CC[C@H](C)[C@@H](C(=O)N[C@@H]([C@@H](C)O)C(=O)N[C@@H](CC(C)C)C(=O)[C@]1(CO1)C)NC(=O)[C@H]([C@@H](C)CC)N(C)C(=O)C [epoxomicin]
# Procedure, shortened: as §1
# [5] = compound: CCn1cc(-c2ccnc3[nH]c(-c4cccc(CN(C)C)c4)cc23)c(-c2ccc(NC(=O)N(C)C)cc2)n1
# Procedure, shortened: as §1
# [6] = compound: CN(C)CC(=O)Nc1ccc2[nH]c(=O)c3ccccc3c2c1
# Procedure, shortened: as §1
# [7] = compound: CN1C2=C(C3=C1C(=O)N(N=C3)CC4=CC(=CC=C4)N)SC(=C2)S(=O)C
# Procedure, shortened: as §1
# [8] = compound: CN1CCC(CNc2ccc3ncc(-c4cccc(OC(F)(F)F)c4)n3n2)CC1
# Procedure, shortened: as §1
# [9] = compound: CN1CCN(CCOc2cc(OC3CCOCC3)c3c(Nc4c(Cl)ccc5c4OCO5)ncnc3c2)CC1 [saracatinib]
# Procedure, shortened: as §1
# [10] = compound: CN1CCN(c2nc(C3=C(c4c[nH]c5ccccc45)C(=O)NC3=O)c3ccccc3n2)CC1 [sotrastaurin]
# Procedure, shortened: as §1
# [11] = compound: CN1CCc2c(c3ccccc3n2Cc2ccc(C(=O)NO)cc2)C1 [Tubastatin A]
# Procedure, shortened: as §1
# [12] = compound: CNC(=O)C1=CC=CC=C1NC2=NC(=NC=C2Cl)NC3=C(C=C(C=C3)N4CCOCC4)OC
# Procedure, shortened: as §1
# [13] = compound: CNC(=O)c1ccc(Nc2ncc(C(F)(F)F)c(NCc3nccnc3N(C)S(C)(=O)=O)n2)cc1 [defactinib]
# Procedure, shortened: as §1
# [14] = compound: CNCc1ccc(-c2[nH]c3cc(F)cc4c3c2CCNC4=O)cc1 [rucaparib]
# Procedure, shortened: as §1
# [15] = compound: CNc1nc(-c2ccc3c(N)n[nH]c3c2)cc(N2C[C@@H](C(=O)NC3CCCCC3)CC[C@H]2C)n1
# Procedure, shortened: as §1
# [16] = compound: COC(=O)N[C@@H](C)CNc1nccc(-c2cn(C(C)C)nc2-c2cc(Cl)cc(NS(C)(=O)=O)c2F)n1 [encorafenib]
# Procedure, shortened: as §1
# [17] = compound: COC(=O)[C@H](CCSC)NC(=O)C1=C(C=C(C=C1)NC[C@H](CS)N)C2=CC=CC=C2
# Procedure, shortened: as §1
# [18] = compound: CCn1c(C(=O)N(C2CC2)C2CC2)cc2c3c(ncn3C)c(Nc3cc(C)n(C)n3)nc21
# Procedure, shortened: as §1
# [19] = compound: CN(CCOC1=CC=C(C=C1)C[C@H]2C(=O)NC(=O)S2)C3=CC=CC=N3 (racemic) [rosiglitazone]
# Procedure, shortened: as §1
# [20] = compound: CN1CC[C@H](c2c(O)cc(O)c3c(=O)cc(-c4ccccc4Cl)oc23)[C@H](O)C1 [alvocidib]
# Procedure, shortened: as §1
Target,log2 fold change [1],log2 fold change [2],log2 fold change [3],log2 fold change [4],log2 fold change [5],log2 fold change [6],log2 fold change [7],log2 fold change [8],log2 fold change [9],log2 fold change [10],log2 fold change [11],log2 fold change [12],log2 fold change [13],log2 fold change [14],log2 fold change [15],log2 fold change [16],log2 fold change [17],log2 fold change [18],log2 fold change [19],log2 fold change [20]
PRIM2 (UniProt P49643),inactive: -0.119,active: -0.285,inactive: 0.147,inactive: 0.02,inactive: -0.07,inactive: 0.076,inactive: 0.013,inactive: -0.131,inactive: -0.013,inactive: -0.192,inactive: 0.024,inactive: 0.009,inactive: -0.127,inactive: 0.001,inactive: 0.018,inactive: 0.052,inactive: -0.055,–,–,–
PPP2R5B (UniProt Q15173),inactive: -0.348,inactive: -0.173,inactive: 0.021,–,inactive: 0.015,inactive: 0.128,inactive: -0.05,active: -0.529,inactive: -0.161,–,–,inactive: -0.064,inactive: 0.051,inactive: -0.015,inactive: -0.043,inactive: 0.07,inactive: -0.135,–,–,–
PRKCSH isoform 2 (UniProt P14314),inactive: -0.06,–,inactive: -0.052,inactive: 0.006,inactive: -0.075,inactive: -0.017,inactive: 0.027,inactive: 0.052,inactive: -0.069,–,inactive: 0.013,inactive: -0.007,inactive: -0.089,inactive: 0.023,inactive: -0.008,inactive: -0.08,inactive: 0.038,inactive: 0.01,inactive: -0.009,inactive: 0.001
PPP3CA (UniProt Q08209),inactive: -0.111,inactive: -0.082,inactive: 0.013,–,inactive: 0.011,inactive: 0.055,inactive: -0.05,inactive: -0.076,inactive: -0.002,inactive: 0.02,inactive: -0.067,inactive: -0.062,inactive: -0.122,inactive: -0.048,inactive: -0.087,inactive: -0.122,inactive: 0.127,inactive: 0.029,inactive: 0.063,inactive: 0.051
PPP2R5C isoform 4 (UniProt Q13362),inactive: -0.069,inactive: -0.127,inactive: 0.042,inactive: 0.19,inactive: -0.099,inactive: -0.048,inactive: -0.003,inactive: -0.11,inactive: -0.04,inactive: 0.009,inactive: 0.012,inactive: -0.068,inactive: -0.083,inactive: -0.003,inactive: -0.032,inactive: 0.06,inactive: -0.025,–,–,–
PRPSAP2 (UniProt O60256),inactive: 0.07,inactive: 0.056,inactive: -0.043,inactive: -0.008,inactive: -0.088,inactive: -0.02,inactive: -0.041,inactive: 0.159,inactive: 0.011,inactive: 0.084,inactive: -0.018,inactive: -0.017,inactive: 0.01,inactive: -0.014,inactive: 0.03,inactive: -0.004,inactive: -0.012,–,–,–
PRKCG (UniProt P05129),inactive: -0.253,inactive: -0.062,inactive: 0.058,inactive: 0.086,inactive: -0.117,inactive: 0.058,inactive: 0.093,inactive: -0.176,inactive: 0.011,inactive: -0.373,inactive: -0.025,inactive: 0.088,inactive: -0.015,inactive: -0.021,inactive: -0.164,inactive: 0.19,inactive: -0.02,–,–,–
PRKAA1 isoform 2 (UniProt Q13131),inactive: -0.035,inactive: -0.154,inactive: 0.04,inactive: 0.017,inactive: -0.052,inactive: -0.007,inactive: 0.001,active: -0.254,inactive: 0.027,inactive: 0.033,inactive: -0.015,inactive: -0.19,inactive: -0.048,inactive: -0.006,inactive: -0.047,inactive: 0.02,inactive: -0.004,–,–,–
PRPF38B (UniProt Q5VTL8),inactive: -0.152,inactive: -0.231,inactive: 0.015,inactive: -0.002,inactive: -0.02,inactive: -0.01,inactive: 0.018,inactive: -0.073,inactive: 0.011,inactive: -0.006,inactive: -0.027,active: -0.287,active: -0.27,inactive: -0.08,inactive: -0.039,inactive: 0.015,inactive: 0.044,–,–,–
PRCP (UniProt P42785),active: -0.265,active: -0.291,inactive: -0.024,inactive: -0.002,inactive: 0.008,inactive: 0.014,inactive: 0.024,active: -0.389,inactive: 0.019,inactive: 0.054,inactive: -0.01,inactive: 0.025,inactive: -0.009,inactive: 0.01,inactive: -0.035,inactive: 0.007,inactive: 0.05,–,–,–

# Taken from above.
# Entry for PPP3CA (UniProt Q08209) under log2 fold change [9]: inactive: -0.002
# Entry for PPP2R5C isoform 4 (UniProt Q13362) under log2 fold change [14]: inactive: -0.003
